In the supplement of paper PMC12823440, “Inhibitors supercharge kinase turnover through native proteolytic circuits” (Nature, 2025):
The other results are listed elsewhere or left out. Hit calls seldom repeat between salt and free forms of one compound.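 In K562 cells expressing nanoluciferase-fused kinases, luminescence was recorded at 4 h intervals between 2 and 18 h, normalized as percent of control with DMSO at 100% and a positive control at 0%. A significant (2 sigma) signal drop marks a time point as decreased. The authors' rule for a hit is not shown and takes in more than the number of time points.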

Protein sequences, listed by entry. Tags and fused reporters are not part of them. Lines headed by an entry give the natural chain unless they say otherwise; changes in a name come on top.
UniProt P50613: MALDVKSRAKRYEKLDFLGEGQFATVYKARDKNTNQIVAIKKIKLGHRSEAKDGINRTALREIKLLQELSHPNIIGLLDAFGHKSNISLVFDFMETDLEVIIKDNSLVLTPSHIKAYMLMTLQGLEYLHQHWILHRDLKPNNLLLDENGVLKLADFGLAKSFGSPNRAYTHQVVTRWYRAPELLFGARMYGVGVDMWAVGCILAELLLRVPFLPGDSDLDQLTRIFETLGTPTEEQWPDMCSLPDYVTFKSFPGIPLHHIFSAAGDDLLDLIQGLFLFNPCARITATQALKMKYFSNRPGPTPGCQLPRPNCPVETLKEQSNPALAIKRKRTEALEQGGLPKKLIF
UniProt P50750, whole entry: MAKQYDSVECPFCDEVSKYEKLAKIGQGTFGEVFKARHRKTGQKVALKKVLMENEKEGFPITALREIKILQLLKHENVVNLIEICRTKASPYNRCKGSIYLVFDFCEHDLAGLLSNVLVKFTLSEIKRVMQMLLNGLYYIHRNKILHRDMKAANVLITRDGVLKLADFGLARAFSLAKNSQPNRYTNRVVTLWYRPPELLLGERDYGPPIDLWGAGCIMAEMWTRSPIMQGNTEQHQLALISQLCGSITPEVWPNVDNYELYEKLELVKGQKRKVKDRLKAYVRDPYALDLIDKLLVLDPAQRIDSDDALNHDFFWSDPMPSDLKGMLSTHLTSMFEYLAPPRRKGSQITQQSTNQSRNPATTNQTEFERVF
UniProt O96017, whole entry: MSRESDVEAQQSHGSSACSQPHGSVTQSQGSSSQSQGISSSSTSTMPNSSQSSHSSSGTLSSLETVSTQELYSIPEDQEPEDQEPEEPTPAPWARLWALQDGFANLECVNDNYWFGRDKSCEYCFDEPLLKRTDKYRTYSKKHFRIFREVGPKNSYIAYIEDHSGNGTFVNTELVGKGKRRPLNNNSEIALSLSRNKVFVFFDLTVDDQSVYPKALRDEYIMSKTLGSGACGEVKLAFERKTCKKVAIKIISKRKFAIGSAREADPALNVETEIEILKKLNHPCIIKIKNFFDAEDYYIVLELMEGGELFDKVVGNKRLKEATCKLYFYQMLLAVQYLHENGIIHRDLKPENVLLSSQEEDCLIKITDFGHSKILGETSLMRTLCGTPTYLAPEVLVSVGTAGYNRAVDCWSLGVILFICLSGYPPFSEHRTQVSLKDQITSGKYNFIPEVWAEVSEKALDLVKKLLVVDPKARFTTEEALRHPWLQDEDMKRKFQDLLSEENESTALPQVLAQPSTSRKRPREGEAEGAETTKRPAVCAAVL
UniProt P07333, whole entry: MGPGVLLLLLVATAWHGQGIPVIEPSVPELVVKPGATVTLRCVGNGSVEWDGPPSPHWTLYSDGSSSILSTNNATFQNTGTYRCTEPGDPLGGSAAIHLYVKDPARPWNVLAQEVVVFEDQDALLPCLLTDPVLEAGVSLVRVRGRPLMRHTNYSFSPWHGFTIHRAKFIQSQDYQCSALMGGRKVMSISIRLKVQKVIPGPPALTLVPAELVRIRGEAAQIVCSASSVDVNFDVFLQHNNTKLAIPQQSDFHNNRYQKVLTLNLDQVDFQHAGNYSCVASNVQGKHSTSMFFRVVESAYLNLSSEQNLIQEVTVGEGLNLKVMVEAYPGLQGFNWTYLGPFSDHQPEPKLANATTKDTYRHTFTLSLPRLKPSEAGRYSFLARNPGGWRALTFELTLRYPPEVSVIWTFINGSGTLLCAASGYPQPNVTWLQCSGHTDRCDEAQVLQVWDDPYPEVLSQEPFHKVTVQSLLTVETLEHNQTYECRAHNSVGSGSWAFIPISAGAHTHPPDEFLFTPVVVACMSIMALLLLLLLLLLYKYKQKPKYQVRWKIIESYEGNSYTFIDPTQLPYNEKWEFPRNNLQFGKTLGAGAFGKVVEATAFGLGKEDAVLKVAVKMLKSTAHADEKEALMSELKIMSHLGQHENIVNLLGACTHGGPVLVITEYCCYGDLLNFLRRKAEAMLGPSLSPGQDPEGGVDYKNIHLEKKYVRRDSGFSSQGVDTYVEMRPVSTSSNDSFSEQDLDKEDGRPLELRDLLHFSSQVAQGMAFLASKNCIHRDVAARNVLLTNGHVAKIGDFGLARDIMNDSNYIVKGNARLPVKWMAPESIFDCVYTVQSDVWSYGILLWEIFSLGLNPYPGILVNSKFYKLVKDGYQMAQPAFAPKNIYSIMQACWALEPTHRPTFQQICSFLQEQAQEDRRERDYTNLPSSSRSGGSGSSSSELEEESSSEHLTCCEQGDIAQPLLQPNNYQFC
UniProt P41240: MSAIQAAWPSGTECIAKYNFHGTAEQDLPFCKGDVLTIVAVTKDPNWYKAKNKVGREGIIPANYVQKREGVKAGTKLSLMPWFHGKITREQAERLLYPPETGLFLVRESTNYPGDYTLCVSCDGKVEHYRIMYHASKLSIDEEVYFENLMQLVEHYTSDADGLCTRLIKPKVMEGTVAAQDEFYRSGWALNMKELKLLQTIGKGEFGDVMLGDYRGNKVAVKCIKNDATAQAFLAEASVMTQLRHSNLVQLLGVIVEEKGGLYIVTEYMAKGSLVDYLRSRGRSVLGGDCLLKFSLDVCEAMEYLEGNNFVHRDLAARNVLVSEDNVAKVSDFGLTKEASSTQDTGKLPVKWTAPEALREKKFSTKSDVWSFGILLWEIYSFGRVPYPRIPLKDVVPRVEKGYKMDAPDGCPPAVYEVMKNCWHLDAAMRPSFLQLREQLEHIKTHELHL
UniProt P48729: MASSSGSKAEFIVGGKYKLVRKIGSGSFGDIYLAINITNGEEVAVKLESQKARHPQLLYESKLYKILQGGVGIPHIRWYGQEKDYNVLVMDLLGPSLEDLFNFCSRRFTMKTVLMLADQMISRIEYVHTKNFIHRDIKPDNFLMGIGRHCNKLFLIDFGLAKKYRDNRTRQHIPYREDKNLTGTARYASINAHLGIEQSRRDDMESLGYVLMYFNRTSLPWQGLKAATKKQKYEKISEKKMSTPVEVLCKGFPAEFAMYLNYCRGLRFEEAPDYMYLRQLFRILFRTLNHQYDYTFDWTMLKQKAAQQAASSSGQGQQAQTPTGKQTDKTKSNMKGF
UniProt P48730: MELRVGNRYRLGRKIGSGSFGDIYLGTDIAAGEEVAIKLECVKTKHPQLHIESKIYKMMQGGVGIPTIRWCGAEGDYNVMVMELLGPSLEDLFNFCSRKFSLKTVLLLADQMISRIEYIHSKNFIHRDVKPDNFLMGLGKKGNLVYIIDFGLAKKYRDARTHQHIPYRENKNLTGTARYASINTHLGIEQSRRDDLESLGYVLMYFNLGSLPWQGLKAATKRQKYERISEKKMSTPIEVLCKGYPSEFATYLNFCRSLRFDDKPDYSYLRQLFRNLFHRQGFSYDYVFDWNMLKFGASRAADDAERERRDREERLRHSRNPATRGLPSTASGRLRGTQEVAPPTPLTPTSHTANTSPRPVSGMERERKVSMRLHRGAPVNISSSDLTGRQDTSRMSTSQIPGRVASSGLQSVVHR
UniProt Q08345: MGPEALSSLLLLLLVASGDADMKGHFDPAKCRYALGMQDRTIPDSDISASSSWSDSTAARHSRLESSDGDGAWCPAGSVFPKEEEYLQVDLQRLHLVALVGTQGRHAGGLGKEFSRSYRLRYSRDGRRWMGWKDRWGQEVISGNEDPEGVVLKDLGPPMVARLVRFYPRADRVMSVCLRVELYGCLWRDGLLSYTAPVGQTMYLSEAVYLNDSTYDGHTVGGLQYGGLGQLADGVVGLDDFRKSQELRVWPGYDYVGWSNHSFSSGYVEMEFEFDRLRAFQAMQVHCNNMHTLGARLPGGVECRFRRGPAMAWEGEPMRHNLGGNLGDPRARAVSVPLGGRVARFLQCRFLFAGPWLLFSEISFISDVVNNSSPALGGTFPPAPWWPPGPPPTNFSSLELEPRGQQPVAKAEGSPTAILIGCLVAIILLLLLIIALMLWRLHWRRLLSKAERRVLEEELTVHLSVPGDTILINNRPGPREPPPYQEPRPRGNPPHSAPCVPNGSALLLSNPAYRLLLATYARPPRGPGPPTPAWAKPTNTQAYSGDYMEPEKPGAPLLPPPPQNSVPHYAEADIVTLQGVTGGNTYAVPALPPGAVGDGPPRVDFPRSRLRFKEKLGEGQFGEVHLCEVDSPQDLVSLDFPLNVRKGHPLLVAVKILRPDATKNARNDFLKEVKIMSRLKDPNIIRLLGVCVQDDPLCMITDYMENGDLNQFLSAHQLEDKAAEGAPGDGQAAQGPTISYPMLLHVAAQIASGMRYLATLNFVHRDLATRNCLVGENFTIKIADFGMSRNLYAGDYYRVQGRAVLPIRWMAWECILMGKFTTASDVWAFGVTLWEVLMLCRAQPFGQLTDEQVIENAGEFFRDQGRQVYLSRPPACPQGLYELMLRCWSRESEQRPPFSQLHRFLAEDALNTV
UniProt Q9Y463, whole entry, looked up: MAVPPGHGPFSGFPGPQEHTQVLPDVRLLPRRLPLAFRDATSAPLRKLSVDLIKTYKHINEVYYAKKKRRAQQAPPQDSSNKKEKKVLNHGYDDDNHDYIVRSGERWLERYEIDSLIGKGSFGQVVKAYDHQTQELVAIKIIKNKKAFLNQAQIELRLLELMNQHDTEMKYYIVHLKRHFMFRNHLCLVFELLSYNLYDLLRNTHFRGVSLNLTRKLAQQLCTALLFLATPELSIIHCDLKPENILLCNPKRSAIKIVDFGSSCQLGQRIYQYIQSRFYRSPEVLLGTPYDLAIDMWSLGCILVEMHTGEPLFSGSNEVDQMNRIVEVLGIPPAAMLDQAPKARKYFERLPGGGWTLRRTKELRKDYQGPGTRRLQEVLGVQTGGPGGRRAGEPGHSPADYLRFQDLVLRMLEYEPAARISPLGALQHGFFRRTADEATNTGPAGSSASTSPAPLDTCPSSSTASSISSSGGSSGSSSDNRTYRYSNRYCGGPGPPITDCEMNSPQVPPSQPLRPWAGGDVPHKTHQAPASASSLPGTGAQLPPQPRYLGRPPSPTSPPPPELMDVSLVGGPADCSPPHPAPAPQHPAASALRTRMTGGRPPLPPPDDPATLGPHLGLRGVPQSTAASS
UniProt Q92630: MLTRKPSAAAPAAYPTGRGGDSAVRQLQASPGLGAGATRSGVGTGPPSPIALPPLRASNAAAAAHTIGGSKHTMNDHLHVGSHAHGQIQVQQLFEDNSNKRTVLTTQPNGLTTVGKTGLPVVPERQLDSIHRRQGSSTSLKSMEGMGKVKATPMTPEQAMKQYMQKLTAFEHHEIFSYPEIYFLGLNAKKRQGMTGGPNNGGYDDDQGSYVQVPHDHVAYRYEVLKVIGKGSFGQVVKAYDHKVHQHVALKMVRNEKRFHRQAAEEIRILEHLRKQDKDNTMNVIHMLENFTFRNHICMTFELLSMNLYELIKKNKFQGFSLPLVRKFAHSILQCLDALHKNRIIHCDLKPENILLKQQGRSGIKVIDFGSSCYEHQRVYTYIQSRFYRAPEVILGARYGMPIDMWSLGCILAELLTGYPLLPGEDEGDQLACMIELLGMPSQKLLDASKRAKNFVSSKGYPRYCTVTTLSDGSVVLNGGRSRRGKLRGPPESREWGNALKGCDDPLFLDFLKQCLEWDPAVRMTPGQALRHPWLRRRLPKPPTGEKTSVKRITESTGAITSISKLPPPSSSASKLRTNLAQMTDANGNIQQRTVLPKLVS

What was measured:
Assay in all cases: kinase-Nluc reporter destabilization hit call (1 = scored as downregulated) (binary); higher = compound decreases kinase abundance
Settings in all cases: K562; 2-18 h
[1] = molecular target: CDK7 (UniProt P50613)
[2] = molecular target: CDK9 (UniProt P50750)
[3] = molecular target: CHEK2 (UniProt O96017)
[4] = molecular target: CSF1R (UniProt P07333)
[5] = molecular target: CSK (UniProt P41240)
[6] = molecular target: CSNK1A1 (UniProt P48729)
[7] = molecular target: CSNK1D (UniProt P48730)
[8] = molecular target: DDR1 (UniProt Q08345)
[9] = molecular target: DYRK1B (UniProt Q9Y463)
[10] = molecular target: DYRK2 (UniProt Q92630)

Measured: kinase-Nluc reporter destabilization hit call

N#Cc1ccc2ncnc(NC3CCC(N4CCOCC4)CC3)c2c1 (stereo not given) (10 µM)
inactive: [1] 0 | [2] 0 | [3] 0 | [4] 0 | [5] 0 | [6] 0 | [7] 0 | [8] 0 | [9] 0 | [10] 0

C#CCN(C)C(=O)CCNc1nc(N2CCN(C(=O)C=C)CC2)c2cc(Cl)c(-c3c(O)cccc3F)c(F)c2n1 [ARS-1323-alkyne] (2.5 µM)
inactive: [1] 0 | [2] 0 | [3] 0 | [4] 0 | [5] 0 | [6] 0 | [7] 0 | [8] 0 | [9] 0 | [10] 0

CC(C)CN[C@H]1CS(=O)(=O)C[C@@H]1S(=O)(=O)c1ccc(Cl)cc1 (10 µM)
inactive: [1] 0 | [2] 0 | [3] 0 | [4] 0 | [5] 0 | [6] 0 | [7] 0 | [8] 0 | [9] 0 | [10] 0

CN1C(=O)C(Cc2c[nH]c3ccccc23)NC1=S (stereo not given) [Necrostatin-1] (10 µM)
inactive: [1] 0 | [2] 0 | [3] 0 | [4] 0 | [5] 0 | [6] 0 | [7] 0 | [8] 0 | [9] 0 | [10] 0

C=C(C)C(=O)Nc1cccc(-c2ncnc3[nH]cc(C(=O)OCC)c23)c1 (10 µM)
inactive: [1] 0 | [2] 0 | [3] 0 | [4] 0 | [5] 0 | [6] 0 | [7] 0 | [8] 0 | [9] 0 | [10] 0

Cc1c(CN2CCN(S(C)(=O)=O)CC2)sc2c(N3CCOCC3)nc(-c3cnc(N)nc3)nc12 (2.5 µM)
inactive: [1] 0 | [2] 0 | [3] 0 | [4] 0 | [5] 0 | [6] 0 | [7] 0 | [8] 0 | [9] 0 | [10] 0

Nc1cc(Nc2ccc(S(N)(=O)=O)cc2)ncn1 (10 µM)
inactive: [1] 0 | [2] 0 | [3] 0 | [4] 0 | [5] 0 | [6] 0 | [7] 0 | [8] 0 | [9] 0 | [10] 0

CC/C=C\C/C=C\C/C=C\CCCCCCCC(=O)O [α-Linolenic acid] (10 µM)
inactive: [1] 0 | [2] 0 | [3] 0 | [4] 0 | [5] 0 | [6] 0 | [7] 0 | [8] 0 | [9] 0 | [10] 0

O=C(NCCCNc1nc(Nc2cccc(NC(=O)N3CCCC3)c2)ncc1I)c1cccs1 (2.5 µM)
inactive: [1] 0 | [2] 0 | [3] 0 | [4] 0 | [5] 0 | [6] 0 | [7] 0 | [8] 0 | [9] 0 | [10] 0

Nc1nccc(Oc2ccc(NC(=O)c3cn(COP(=O)(O)O)cc(-c4ccc(F)cc4)c3=O)cc2F)c1Cl (10 µM)
inactive: [1] 0 | [2] 0 | [3] 0 | [4] 0 | [5] 0 | [6] 0 | [7] 0 | [8] 0 | [9] 0 | [10] 0

COc1ccc(Cl)cc1NC(=O)Nc1cc(C)nc2ccccc12 (2.5 µM)
inactive: [1] 0 | [2] 0 | [3] 0 | [4] 0 | [5] 0 | [6] 0 | [7] 0 | [8] 0 | [9] 0 | [10] 0

COc1cc2c[n+](C)c3c4cc5c(cc4ccc3c2cc1OC)OCO5 [Nitidine (chloride)] (2 µM)
inactive: [1] 0 | [2] 0 | [3] 0 | [4] 0 | [5] 0 | [6] 0 | [7] 0 | [8] 0 | [9] 0 | [10] 0

COc1ccc(Cn2cc(C(=O)N=Nc3c(O)[nH]c4c(C)cccc34)nn2)cc1 [MARK4 inhibitor 1] (10 µM)
inactive: [1] 0 | [2] 0 | [3] 0 | [4] 0 | [5] 0 | [6] 0 | [7] 0 | [8] 0 | [9] 0 | [10] 0

O=C(Nc1cc(Oc2cc(F)c(NC(=O)C3(C(=O)Nc4ccc(F)cc4)CC3)cc2F)ccn1)C1CC1 [Altiratinib] (10 µM)
inactive: [1] 0 | [2] 0 | [3] 0 | [4] 0 | [5] 0 | [6] 0 | [7] 0 | [8] 0 | [9] 0 | [10] 0

CS(=O)(=O)c1ccc(-c2noc(C(F)(F)F)c2-c2ccccc2)cc1 (10 µM)
inactive: [1] 0 | [2] 0 | [3] 0 | [4] 0 | [5] 0 | [6] 0 | [7] 0 | [8] 0 | [9] 0 | [10] 0

Nc1ncnc2c1c(-c1ccc(Oc3ccccc3)cc1)nn2C1CCCNC1 (racemic) (2.5 µM)
inactive: [1] 0 | [2] 0 | [3] 0 | [4] 0 | [5] 0 | [6] 0 | [7] 0 | [8] 0 | [9] 0 | [10] 0

COc1cc(N2CCN(C)CC2)ccc1Nc1ncc2c(n1)N(C1CCC1)C(=O)N(c1c(C)cccc1C)C2 (2.5 µM)
inactive: [1] 0 | [2] 0 | [3] 0 | [4] 0 | [5] 0 | [6] 0 | [7] 0 | [8] 0 | [9] 0 | [10] 0

N#Cc1c(-c2ccccc2)cc(-c2cc(Br)ccc2O)[nH]c1=O (10 µM)
inactive: [1] 0 | [2] 0 | [3] 0 | [4] 0 | [5] 0 | [6] 0 | [7] 0 | [8] 0 | [9] 0 | [10] 0

CC(=O)N1CCN(c2cc(-c3cc(C(F)(F)F)c4c(N)ncnn34)ccc2C#N)C(=O)C1(C)C (10 µM)
inactive: [1] 0 | [2] 0 | [3] 0 | [4] 0 | [5] 0 | [6] 0 | [7] 0 | [8] 0 | [9] 0 | [10] 0

CN(CCNc1ccc2ncc(-c3ccc(C(N)=O)cc3)n2n1)C(=O)OC(C)(C)C (10 µM)
inactive: [1] 0 | [2] 0 | [3] 0 | [4] 0 | [5] 0 | [6] 0 | [7] 0 | [8] 0 | [9] 0 | [10] 0

CC1CCc2nc(N)c(C#N)c(-c3cccnc3)c2C1 (stereo not given) (10 µM)
inactive: [1] 0 | [2] 0 | [3] 0 | [4] 0 | [5] 0 | [6] 0 | [7] 0 | [8] 0 | [9] 0 | [10] 0

Cc1ccc(S(=O)(=O)/C=C/C#N)cc1 (10 µM)
inactive: [1] 0 | [2] 0 | [3] 0 | [4] 0 | [5] 0 | [6] 0 | [7] 0 | [8] 0 | [9] 0 | [10] 0

COc1ccc2c(c1O)OC(C)(C)c1c-2ccc2c1C(=O)N(c1ccc(C(=O)c3ccccc3)cc1)C2=O [Ampkinone] (10 µM)
inactive: [1] 0 | [2] 0 | [3] 0 | [4] 0 | [5] 0 | [6] 0 | [7] 0 | [8] 0 | [9] 0 | [10] 0

COc1c(NC(=O)C(=O)c2ccc(OCCN3CCOCC3)c3ccccc23)cc(C(C)(C)C)cc1NS(C)(=O)=O (2.5 µM)
inactive: [1] 0 | [2] 0 | [3] 0 | [4] 0 | [5] 0 | [6] 0 | [7] 0 | [8] 0 | [9] 0 | [10] 0

Copied from the listing, 8 compounds:
CS(=O)(=O)c1ccc(-c2noc(C(F)(F)F)c2-c2ccccc2)cc1 (10 µM)
inactive: [1] 0 | [2] 0 | [3] 0 | [4] 0 | [5] 0 | [6] 0 | [7] 0 | [8] 0 | [9] 0 | [10] 0

Nc1ncnc2c1c(-c1ccc(Oc3ccccc3)cc1)nn2C1CCCNC1 (racemic) (2.5 µM)
inactive: [1] 0 | [2] 0 | [3] 0 | [4] 0 | [5] 0 | [6] 0 | [7] 0 | [8] 0 | [9] 0 | [10] 0

COc1cc(N2CCN(C)CC2)ccc1Nc1ncc2c(n1)N(C1CCC1)C(=O)N(c1c(C)cccc1C)C2 (2.5 µM)
inactive: [1] 0 | [2] 0 | [3] 0 | [4] 0 | [5] 0 | [6] 0 | [7] 0 | [8] 0 | [9] 0 | [10] 0

N#Cc1c(-c2ccccc2)cc(-c2cc(Br)ccc2O)[nH]c1=O (10 µM)
inactive: [1] 0 | [2] 0 | [3] 0 | [4] 0 | [5] 0 | [6] 0 | [7] 0 | [8] 0 | [9] 0 | [10] 0

CC(=O)N1CCN(c2cc(-c3cc(C(F)(F)F)c4c(N)ncnn34)ccc2C#N)C(=O)C1(C)C (10 µM)
inactive: [1] 0 | [2] 0 | [3] 0 | [4] 0 | [5] 0 | [6] 0 | [7] 0 | [8] 0 | [9] 0 | [10] 0

CN(CCNc1ccc2ncc(-c3ccc(C(N)=O)cc3)n2n1)C(=O)OC(C)(C)C (10 µM)
inactive: [1] 0 | [2] 0 | [3] 0 | [4] 0 | [5] 0 | [6] 0 | [7] 0 | [8] 0 | [9] 0 | [10] 0

CC1CCc2nc(N)c(C#N)c(-c3cccnc3)c2C1 (stereo not given) (10 µM)
inactive: [1] 0 | [2] 0 | [3] 0 | [4] 0 | [5] 0 | [6] 0 | [7] 0 | [8] 0 | [9] 0 | [10] 0

Cc1ccc(S(=O)(=O)/C=C/C#N)cc1 (10 µM)
inactive: [1] 0 | [2] 0 | [3] 0 | [4] 0 | [5] 0 | [6] 0 | [7] 0 | [8] 0 | [9] 0 | [10] 0

More results follow:

C[C@@H]1O[C@@H](O[C@H]2[C@H](Oc3cc(O)c4c(=O)cc(-c5ccc(O)cc5)oc4c3)O[C@H](CO)[C@@H](O)[C@@H]2O)[C@H](O)[C@H](O)[C@H]1O [Rhoifolin] (10 µM)
inactive: [1] 0 | [2] 0 | [3] 0 | [4] 0 | [5] 0 | [6] 0 | [7] 0 | [8] 0 | [9] 0 | [10] 0

c1cn2cc(-c3ccc4cn[nH]c4c3)nc(Nc3ccc(N4CCOCC4)cc3)c2n1 [Entospletinib] (10 µM)
inactive: [1] 0 | [2] 0 | [3] 0 | [4] 0 | [5] 0 | [6] 0 | [7] 0 | [8] 0 | [9] 0 | [10] 0

O=C1NC(=O)C(=Cc2ccc(-c3ccc(F)cc3)o2)S1 (stereo in doubt) (10 µM)
inactive: [1] 0 | [2] 0 | [3] 0 | [4] 0 | [5] 0 | [6] 0 | [7] 0 | [8] 0 | [9] 0 | [10] 0
